Source: PubChem BioAssay AID2685 (National Center for Advancing Translational Sciences (NCATS), 2010)
This is one part of the list. The main result of the screen is listed elsewhere. These columns were measured beside it and carry no call. The list favours compounds with an active or inconclusive main result. The note in brackets gives the kind of curve behind each potency; many fits are weak.

Assay: qHTS Assay for Lipid Storage Modulators in Drosophila S3 Cells;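 as to cell number change: cells counted by Cell Tracker Red CMTPX staining in the red channel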
Conditions: BODIPY lipid droplet fluorescence, 18-24 h; for cell number change: measured here: cell count max response, cells fed with added oleic acid
Procedure, shortened: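 Drosophila S3 cells got compounds at several concentrations plus oleic acid (400 uM solution). Laser-scanning cytometry with 488 nm excitation read lipid droplets at 500-530 nm and cells at 575-640 nm. Percent activity was relative to 20 uM Triacsin C.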

[1] = measured here: lipid fluorescence (Fed channel) AC50, cells fed with added oleic acid
[2] = measured here: cell number channel AC50, cells fed with added oleic acid

## COc1cccc(CN(C)C(=O)Cc2c[nH]c3ccccc23)c1OC
  cell number change: -20.5%
[1]
  AC50: 0.092 µM [falling, partial curve, poor fit]

## CC1=C(C(=O)OCC2CCCO2)C(c2ccccc2)C2=C(CCCC2=O)N1 (stereo not given)
  cell number change: -29%
[1]
  AC50: 18.4 µM [falling, single point]

## CS(=O)(=O)c1ccc2nc(NC(=O)CN3CCCCCC3)sc2c1
  cell number change: 17.9%

## CCOc1ccc(CNC(=O)C2CCN(S(=O)(=O)c3ccc4c(c3)CCCC(=O)N4)CC2)cc1
  cell number change: 16.4%
[1]
  AC50: 5.8 µM [rising, full curve]

## CCN1CCCC1CNC(=O)CSc1cc(=O)n(CC)c2ccccc12 (stereo not given)
  cell number change: -0.593%
[2]
  AC50: 0.651 µM [falling, single point]
[1]
  AC50: 0.731 µM [falling, single point]

## O=C(COC(=O)C1CCCCC1)Nc1ccccc1OC(F)F
  cell number change: 28.6%

## CC1=CC(C)(C)N(C(=O)c2ccc(F)cc2)c2cc3c(cc21)OCO3
  cell number change: -39.4%
[2]
  AC50: 20.6 µM [falling, partial curve]

## CCn1cc(C2=NC(c3ccccc3)CO2)c2ccccc21 (stereo not given)
  cell number change: 7.13%
[1]
  AC50: 0.206 µM [rising, full curve, poor fit]

## CCc1ccccc1NC(=O)CCS(=O)(=O)c1ccc(C)cc1
  cell number change: 34.6%
[2]
  AC50: 14.6 µM [rising, partial curve]

## O=C(CSc1ncnc2ccccc12)NCCc1ccccc1
  cell number change: 64%
[2]
  AC50: 29.1 µM [rising, single point]
[1]
  AC50: 29.1 µM [rising, single point]

## Cc1ccc(C(=O)NC(Cc2c[nH]c3ccccc23)C(=O)O)cc1 (stereo not given)
[1]
  AC50: 18.4 µM [falling, partial curve]

## COc1ccc(CCN=C(N)NS(=O)(=O)c2ccc(C)c(C)c2)cc1OC
  cell number change: 23.2%
[1]
  AC50: 2.24 µM [rising, partial curve]

## Cc1noc(C)c1COc1ccccc1C(=O)NNC(=O)C(C)Oc1ccccc1F (stereo not given)
  cell number change: 131%
[2]
  AC50: 4.11 µM [falling, single point]
[1]
  AC50: 29.1 µM [rising, single point]

## O=C(Cc1cn(-c2ccccc2)nc1-c1ccccc1)N1CCCCC1
  cell number change: -7.89%
[1]
  AC50: 6.31 µM [falling, single point]

## CCn1nc(C)c(CNC(=O)c2cc(COc3ccccc3SC)on2)c1C
  cell number change: 6.37%
[2]
  AC50: 3.66 µM [rising, single point]
[1]
  AC50: 6.51 µM [rising, single point]

## COc1ccccc1C(=O)Nc1ccnn1C1CCN(CCCC2CCCC2)CC1
[1]
  AC50: 6.51 µM [falling, single point]

## Fc1cccc(Cl)c1CSc1ncn[nH]1
  cell number change: -21.7%

## Cn1c2ccc(F)cc2c2nc3ccccc3nc21
  cell number change: -29.9%
[1]
  AC50: 29.1 µM [falling, single point]

## CS(=O)(=O)c1ccc(C(=O)Nc2ccc(N3CCCCC3)cc2)c(Cl)c1
  cell number change: 70.9%
[2]
  AC50: 23.1 µM [rising, single point]

## CCSc1ncc(/C=N/Nc2ccccc2)n1C
[1]
  AC50: 0.651 µM [rising, single point]

## O=C1c2ccccc2C(=O)c2c1cccc2N1CCN(Cc2ccccc2)CC1
[1]
  AC50: 6.51 µM [falling, single point]

## Cc1cc(C)c(NC(=O)/C(=C/c2ccccc2)c2ccccc2)c(C)c1
  cell number change: -37.4%
[2]
  AC50: 11.6 µM [falling, partial curve]
[1]
  AC50: 0.651 µM [falling, full curve, poor fit]

## Cc1ccc2nc(Cn3cc(C(F)(F)F)ccc3=O)cc(=O)n2c1
  cell number change: 4.44%

## CCN(CC)S(=O)(=O)c1cccc(NC(=O)COC(=O)C2COc3ccccc3O2)c1 (stereo not given)
  cell number change: -3.73%
[1]
  AC50: 6.51 µM [falling, single point]

## Cc1ccc(NC(=O)/C(=C\c2cccc([N+](=O)[O-])c2)NC(=O)c2cccs2)cc1
  cell number change: 15.5%
[1]
  AC50: 20.6 µM [falling, single point]

## COc1cc(OC)c(NC(=O)CCc2ccccc2)cc1Cl
[1]
  AC50: 6.51 µM [rising, single point]

## O=C(/C=C/c1ccc[nH]1)c1ccc(F)cc1
  cell number change: 1.59%
[1]
  AC50: 29.1 µM [falling, single point]

## COc1ccccc1NC(=O)CCc1nc2sc3c(c2c(=O)[nH]1)CCCC3
  cell number change: 74.4%
[2]
  AC50: 20.6 µM [rising, partial curve]

## N#C/C(=C\c1ccccc1)C(=O)OCC(=O)N1CCCC1
  cell number change: -20.2%
[2]
  AC50: 1.46 µM [falling, partial curve, poor fit]
[1]
  AC50: 6.51 µM [falling, single point]

## CCN(CC)C(=O)c1cn(CC)c(=O)c2cc(OC)c(OC)cc12
[2]
  AC50: 1.46 µM [falling, partial curve]

## Cc1c(OC(C)C(=O)N2C[C@H]3C[C@@H](C2)c2cccc(=O)n2C3)ccc2c3c(c(=O)oc12)CCCC3 (stereo not given in full)
  cell number change: 3.24%

## COc1cccc(-c2nc(CS(=O)(=O)CC(=O)NCc3ccc4c(c3)OCO4)c(C)o2)c1
  cell number change: 5.81%
[1]
  AC50: 32.6 µM [falling, partial curve, poor fit]

## CN(C)C1(CNC(=O)C2CCN(S(=O)(=O)c3ccccc3C(F)(F)F)CC2)CCCCC1
  cell number change: -7.78%

## CCN(CC)CCCN(C(=O)c1ccc(Br)cc1)c1nc(-c2ccc(OC)cc2)cs1
  cell number change: -17.4%
[1]
  AC50: 32.6 µM [falling, partial curve]

## C=CCc1cc(Cl)ccc1OCCOCCNC(C)(C)C
  cell number change: -52.8%
[2]
  AC50: 29.1 µM [falling, single point]
[1]
  AC50: 29.1 µM [falling, single point]

## COc1cc2c(cc1OC)C(c1cccc(OC)c1OC)CC(=O)N2 (stereo not given)
  cell number change: -32.7%
[2]
  AC50: 0.366 µM [falling, full curve, poor fit]
[1]
  AC50: 7.31 µM [rising, full curve, poor fit]

## C/C=C/C=C/C(=O)OCC(=O)Nc1ccc(Cl)cc1
  cell number change: -5.56%
[2]
  AC50: 6.51 µM [rising, single point]
[1]
  AC50: 6.51 µM [rising, single point]

## O=[N+]([O-])c1ccc(/C=C/C2=NN(c3ccccc3)C(c3ccco3)C2)cc1 (stereo not given)
  cell number change: -99.7%
[2]
  AC50: 1.16 µM [falling, full curve]
[1]
  AC50: 0.0259 µM [falling, full curve]

## COc1ccc(C2CC(C(F)(F)F)n3nc(C(=O)NCc4c(C)nn(C)c4C)c(Cl)c3N2)cc1 (stereo not given)
  cell number change: -34.4%
[2]
  AC50: 18.4 µM [falling, partial curve, poor fit]

## COc1ccc(/C(C)=N/OCC(=O)N=Nc2c(O)[nH]c3ccc(Br)cc23)cc1
  cell number change: 683%
[2]
  AC50: 29.1 µM [rising, partial curve]

## Cn1c(=O)c2ccccc2n(CC(=O)N2CCCc3ccccc32)c1=O
  cell number change: -0.833%
[1]
  AC50: 0.731 µM [rising, partial curve, poor fit]

## O=C(COC(=O)c1ccc(N2CCOCC2)c([N+](=O)[O-])c1)Nc1ccc2c(c1)OCO2
  cell number change: -26.5%
[1]
  AC50: 0.164 µM [rising, full curve, poor fit]

## COc1cc(C2C3=C(CC(C)(C)CC3=O)N(C)C(=O)N2C)cc(OC)c1OC (stereo not given)
  cell number change: -0.407%

## O=C(O)Cc1cc2c(s1)CCCCC2
  cell number change: 5.85%
[1]
  AC50: 16.4 µM [falling, partial curve]

## CSc1nc2ccc(NS(=O)(=O)c3ccc(Cl)s3)cc2s1
  cell number change: -41.6%
[2]
  AC50: 29.1 µM [falling, single point]
[1]
  AC50: 32.6 µM [falling, single point]

## O=C(NC1CCSc2ccccc21)c1cccc(Br)c1 (stereo not given)
[1]
  AC50: 29.1 µM [falling, single point]

## Cc1cc(C(=O)CSc2nc(N)cc(=O)[nH]2)c(C)n1Cc1ccco1
  cell number change: -7.29%
[1]
  AC50: 18.4 µM [falling, single point]

## O=C(NC(=S)N1CCCCCC1)c1ccc(Cl)cc1Cl
  cell number change: 8.08%
[1]
  AC50: 0.461 µM [rising, full curve, poor fit]

## COc1ccccc1-n1cc(-c2ccccc2)c2c(=S)nc[nH]c21
[1]
  AC50: 0.58 µM [falling, single point]

## CC1CN(C(=O)c2cccc(S(=O)(=O)Nc3ccc(Cl)cc3)c2)CC(C)O1 (stereo not given)
  cell number change: 36.5%
[2]
  AC50: 14.6 µM [rising, single point]
[1]
  AC50: 29.1 µM [rising, single point]

## CCN(CC)c1ccc(-c2sc(Nc3ccccc3)n[n+]2-c2ccc(F)cc2)cc1
  cell number change: 14.6%
[1]
  AC50: 29.1 µM [falling, partial curve, poor fit]

## CN(CCOc1ccccc1)C(=O)c1cc(-c2ccco2)nc2ccccc12
  cell number change: -1.65%
[1]
  AC50: 0.517 µM [rising, full curve]

## O=C(Nc1nc(-c2ccccc2)cs1)C1CCCN(S(=O)(=O)c2ccccc2)C1 (stereo not given)
  cell number change: -87.1%
[2]
  AC50: 18.4 µM [falling, partial curve]
[1]
  AC50: 20.6 µM [falling, partial curve]

## O=C1CCN(c2ncccc2[N+](=O)[O-])CC1
  cell number change: 27%
[2]
  AC50: 0.291 µM [falling, full curve]
[1]
  AC50: 29.1 µM [rising, single point]

## NC(=O)c1nsc(C(=O)N(c2ccccc2)C(C(=O)NC2CCCC2)c2cccs2)c1N (stereo not given)
[1]
  AC50: 6.51 µM [falling, single point]

## CCCCCCCCCCCC(=O)N/N=C/c1ccco1
  cell number change: -45.8%
[2]
  AC50: 3.66 µM [falling, full curve]
[1]
  AC50: 29.1 µM [falling, single point]

## Cc1cc(N2CCN(c3cccc(C(F)(F)F)c3)CC2)n2nc(C)nc2n1
  cell number change: -2.37%
[1]
  AC50: 2.59 µM [rising, full curve]

## Cc1ccc2c(c1)C1CN(C)CCC1N2S(=O)(=O)c1cccc(C(F)(F)F)c1 (stereo not given)
  cell number change: 19.5%
[1]
  AC50: 32.6 µM [rising, partial curve, poor fit]
